Experimental findings from PMC5327575 are described below.

Protein sequences, listed by entry. Tags and fused reporters are not part of them. Residues count along the entry.
UniProt P35222: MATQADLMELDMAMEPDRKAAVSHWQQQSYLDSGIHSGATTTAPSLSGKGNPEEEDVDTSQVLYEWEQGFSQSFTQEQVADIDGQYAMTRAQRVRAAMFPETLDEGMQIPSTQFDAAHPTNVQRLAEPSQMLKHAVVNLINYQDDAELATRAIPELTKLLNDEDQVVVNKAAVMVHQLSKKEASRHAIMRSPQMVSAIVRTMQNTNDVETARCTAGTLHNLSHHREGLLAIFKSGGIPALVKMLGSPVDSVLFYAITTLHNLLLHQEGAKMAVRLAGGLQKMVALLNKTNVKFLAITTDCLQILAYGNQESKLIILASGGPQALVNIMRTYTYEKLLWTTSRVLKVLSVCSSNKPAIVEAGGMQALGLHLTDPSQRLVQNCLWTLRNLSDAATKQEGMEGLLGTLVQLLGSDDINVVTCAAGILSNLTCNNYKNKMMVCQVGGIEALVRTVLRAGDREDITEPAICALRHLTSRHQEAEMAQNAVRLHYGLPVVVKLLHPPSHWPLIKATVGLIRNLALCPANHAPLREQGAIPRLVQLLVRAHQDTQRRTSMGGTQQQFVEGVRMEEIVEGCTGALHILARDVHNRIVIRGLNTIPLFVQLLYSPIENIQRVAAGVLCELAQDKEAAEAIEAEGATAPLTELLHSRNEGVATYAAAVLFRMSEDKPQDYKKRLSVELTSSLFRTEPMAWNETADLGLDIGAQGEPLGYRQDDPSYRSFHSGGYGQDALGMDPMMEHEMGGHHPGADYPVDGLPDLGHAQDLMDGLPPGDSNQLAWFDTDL
UniProt P46531, residues 1754-2555: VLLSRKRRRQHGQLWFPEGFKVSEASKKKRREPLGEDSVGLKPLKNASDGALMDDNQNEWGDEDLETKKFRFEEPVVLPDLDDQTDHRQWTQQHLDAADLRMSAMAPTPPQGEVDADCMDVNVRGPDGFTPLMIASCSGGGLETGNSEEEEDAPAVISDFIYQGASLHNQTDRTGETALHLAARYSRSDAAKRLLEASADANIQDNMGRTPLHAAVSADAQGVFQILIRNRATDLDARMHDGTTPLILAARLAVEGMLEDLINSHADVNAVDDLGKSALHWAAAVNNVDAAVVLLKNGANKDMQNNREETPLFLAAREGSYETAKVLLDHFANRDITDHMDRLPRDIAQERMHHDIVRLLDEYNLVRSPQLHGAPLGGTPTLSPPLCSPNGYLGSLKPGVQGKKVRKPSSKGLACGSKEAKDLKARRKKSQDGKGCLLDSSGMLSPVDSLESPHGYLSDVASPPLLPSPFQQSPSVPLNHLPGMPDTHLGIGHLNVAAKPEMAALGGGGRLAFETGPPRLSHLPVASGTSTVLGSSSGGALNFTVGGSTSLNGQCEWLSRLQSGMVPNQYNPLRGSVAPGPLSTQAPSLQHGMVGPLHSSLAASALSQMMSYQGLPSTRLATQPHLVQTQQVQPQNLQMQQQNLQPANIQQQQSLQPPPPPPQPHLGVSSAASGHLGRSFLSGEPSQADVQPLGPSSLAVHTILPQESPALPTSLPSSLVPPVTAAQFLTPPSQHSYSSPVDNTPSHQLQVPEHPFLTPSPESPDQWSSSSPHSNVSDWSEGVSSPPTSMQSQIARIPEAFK

No constants are given. Whether binding was seen depends on the method and setting. Binding seen in cells or lysates may run through a third protein. Some results given as binding are weak or reduced against the parent protein; the word gives no strength.

Test [1] concerns the target β-catenin (human (endogenous in GC cell lines)) (UniProt P35222). Put plainly: co-IP; as a1, but GC cells (in vitro) and tumours (in vivo) treated with luteolin.
For test [2] the target is unchanged. Put plainly: co-IP; GC cells lysed in RIPA at 4 °C; 300 μg protein incubated overnight at 4 °C with β-catenin and NICD antibodies; protein A/G Sepharose beads; Western blot.

Consider “Notch intracellular domain (NICD) of Notch1 (from UniProt P46531 1754-2555) (domain or fragment)”, for which the binding entry was “no binding (condition: with luteolin treatment)” in test [1] and “binds” in test [2].
